± gives the standard deviation of the averaged measurements. This is a noisy data set.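 Each ligand was tested at three doses, and effects were judged against wells given only the basal cytokines. TGFB1 at 10 ng/ml served as a negative control and SR1 as a positive control for HSC expansion.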
Assays:
[1] = test system: human umbilical cord blood Lin-RholowCD34+CD38-CD45RA-CD49f+ HSC-enriched cells; experiment: number of CD34+CD133+CD90+ HSC-enriched cells per well on day 7 (from 40 seeded cells); higher = more HSC-enriched cell output; conditions: culture time: 7 days, basal cytokines: 100 ng/ml SCF + 50 ng/ml THPO + 100 ng/ml FLT3LG
Protocol: (§1)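 Forty human umbilical cord blood Lin-RholowCD34+CD38-CD45RA-CD49f+ HSC-enriched cells were cultured per well in serum-free medium with basal cytokines (100 ng/ml SCF, 50 ng/ml THPO, 100 ng/ml FLT3LG) plus one test ligand (recombinant protein or small-molecule inhibitor) at the stated concentration. On day 7, flow cytometry counted CD34+CD133+CD90+ HSC-enriched cells and CD34- mature cells; progenitors (CD34+ cells that are CD133- or CD90-) were calculated as total - HSC-enriched - mature. Values are absolute cell numbers per well, corrected for the 30 µl dead volume and averaged over experiments; they are not normalised to the basal-cytokine control, and they vary strongly between experiments. Concentrations are in ng/ml, except SR1, which is 0.75 µM.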

[2] = test system: human umbilical cord blood Lin-RholowCD34+CD38-CD45RA-CD49f+ HSC-enriched cells; experiment: number of CD34- mature cells per well on day 7 (from 40 seeded cells); higher = more mature cell output; conditions: culture time: 7 days, basal cytokines: 100 ng/ml SCF + 50 ng/ml THPO + 100 ng/ml FLT3LG
Protocol: as §1

[3] = ligand concentration (ng/ml; SR1 in µM as written): 10
[4] = ligand concentration (ng/ml; SR1 in µM as written): 1
[5] = ligand concentration (ng/ml; SR1 in µM as written): 25
[6] = ligand concentration (ng/ml; SR1 in µM as written): 100
[7] = ligand concentration (ng/ml; SR1 in µM as written): 50
[8] = ligand concentration (ng/ml; SR1 in µM as written): 200
[9] = ligand concentration (ng/ml; SR1 in µM as written): 1000
[10] = ligand concentration (ng/ml; SR1 in µM as written): 0.1
[11] = ligand concentration (ng/ml; SR1 in µM as written): 150
[12] = ligand concentration (ng/ml; SR1 in µM as written): 20
[13] = ligand concentration (ng/ml; SR1 in µM as written): 250

NC(=O)c1ccc(-c2nc(-c3ccccn3)c(-c3ccc4c(c3)OCO4)[nH]2)cc1
number [1, 3]: 47.9 ± 4.4 | number [2, 3]: 988 ± 230

BMP6
number [1, 4]: 102 ± 65 | number [1, 5]: 93 ± 71 | number [1, 6]: 81.3 ± 57 | number [2, 4]: 328 ± 270 | number [2, 5]: 444 ± 380 | number [2, 6]: 389 ± 400

H-MTLIGAAHNGSAQLLRQLRGQLGPPGSR-NH2 [OrexinB]
number [1, 7]: 189 ± 44 | number [1, 8]: 174 ± 43 | number [1, 9]: 146 ± 60 | number [2, 7]: 280 ± 130 | number [2, 8]: 440 ± 290 | number [2, 9]: 404 ± 210

MAARRSQRRRGRRGEPGTALLVPLALGLGLALACLGLLLAVVSLGSRASLSAQEPAQEELVAEEDQDPSELNPQTEESQDPAPFLNRLVRPRRSAPKGRKTRARRAIAAHYEVHPRPGQDGAQAGVDGTVSGWEEARINSSSPLRYNRQIGEFIVTRAGLYYLYCQVHFDEGKAVYLKLDLLVDGVLALRCLEEFSATAASSLGPQLRLCQVSGLLALRPGSSLRIRTLPWAHLKAAPFLTYFGLFQVH
number [1, 4]: 97.6 ± 65 | number [1, 3]: 93.7 ± 76 | number [1, 6]: 94 ± 73 | number [2, 4]: 378 ± 270 | number [2, 3]: 361 ± 260 | number [2, 6]: 294 ± 210

MAGPATQSPMKLMALQLLLWHSALWTVQEATPLGPASSLPQSFLLKCLEQVRKIQGDGAALQEKLVSECATYKLCHPEELVLLGHSLGIPWAPLSSCPSQALQLAGCLSQLHSGLFLYQGLLQALEGISPELGPTLDTLQLDVADFATTIWQQMEELGMAPALQPTQGAMPAFASAFQRRAGGVLVASHLQSFLEVSYRVLRHLAQP
number [1, 10]: 108 ± 40 | number [1, 3]: 175 ± 79 | number [1, 6]: 205 ± 150 | number [2, 10]: 620 ± 400 | number [2, 3]: 1720 ± 1300 | number [2, 6]: 1730 ± 1300

MAMMEVQGGPSLGQTCVLIVIFTVLLQSLCVAVTYVYFTNELKQMQDKYSKSGIACFLKEDDSYWDPNDEESMNSPCWQVKWQLRQLVRKMILRTSEETISTVQEKQQNISPLVRERGPQRVAAHITGTRGRSNTLSSPNSKNEKALGRKINSWESSRSGHSFLSNLHLRNGELVIHEKGFYYIYSQTYFRFQEEIKENTKNDKQMVQYIYKYTSYPDPILLMKSARNSCWSKDAEYGLYSIYQGGIFELKENDRIFVSVTNEHLIDMDHEASFFGAFLVG
number [1, 4]: 168 ± 64 | number [1, 3]: 227 ± 80 | number [1, 6]: 101 ± 65 | number [2, 4]: 434 ± 260 | number [2, 3]: 564 ± 390 | number [2, 6]: 285 ± 240

MCPARSLLLVATLVLLDHLSLARNLPVATPDPGMFPCLHHSQNLLRAVSNMLQKARQTLEFYPCTSEEIDHEDITKDKTSTVEACLPLELTKNESCLNSRETSFITNGSCLASRKTSFMMALCLSSIYEDLKMYQVEFKTMNAKLLMDPKRQIFLDQNMLAVIDELMQALNFNSETVPQKSSLEEPDFYKTKIKLCILLHAFRIRAVTIDRVMSYLNAS
number [1, 4]: 112 ± 110 | number [1, 3]: 116 ± 110 | number [1, 11]: 120 ± 140 | number [2, 4]: 427 ± 280 | number [2, 3]: 429 ± 320 | number [2, 11]: 365 ± 290

MDRAARCSGASSLPLLLALALGLVILHCVVADGNSTRSPETNGLLCGDPEENCAATTTQSKRKGHFSRCPKQYKHYCIKGRCRFVVAEQTPSCVCDEGYIGARCERVDLFYLRGDRGQILVICLIAVMVVFIILVIGVCTCCHPLRKRRKRKKKEEEMETLGKDITPINEDIEETNIA
number [1, 4]: 84.7 ± 51 | number [1, 7]: 69.9 ± 36 | number [1, 8]: 89.5 ± 59 | number [2, 4]: 361 ± 270 | number [2, 7]: 334 ± 280 | number [2, 8]: 327 ± 280

MDTRNKAQLLVLLTLLSVLFSQTSAWPLYRAPSALRLGDRIPFEGANEPDQVSLKEDIDMLQNALAENDTPYYDVSRNARHADGVFTSDFSKLLGQLSAKKYLESLMGKRVSSNISEDPVPVKRHSDAVFTDNYTRLRKQMAVKKYLNSILNGKRSSEGESPDFPEELEK
number [1, 7]: 97.4 ± 75 | number [1, 8]: 128 ± 62 | number [1, 9]: 128 ± 74 | number [2, 7]: 318 ± 210 | number [2, 8]: 335 ± 150 | number [2, 9]: 480 ± 390

MFTIKLLLFIVPLVISSRIDQDNSSFDSLSPEPKSRFAMLDDVKILANGLLQLGHGLKDFVHKTKGQINDIFQKLNIFDQSFYDLSLQTSEIKEEEKELRRTTYKLQVKNEEVKNMSLELNSKLESLLEEKILLQQKVKYLEEQLTNLIQNQPETPEHPEVTSLKTFVEKQDNSIKDLLQTVEDQYKQLNQQHSQIKEIENQLRRTSIQEPTEISLSSKPRAPRTTPFLQLNEIRNVKHDGIPAECTTIYNRGEHTSGMYAIRPSNSQVFHVYCDVISGSPWTLIQHRIDGSQNFNETWENYKYGFGRLDGEFWLGLEKIYSIVKQSNYVLRIELEDWKDNKHYIEYSFYLGNHETNYTLHLVAITGNVPNAIPENKDLVFSTWDHKAKGHFNCPEGYSGGWWWHDECGENNLNGKYNKPRAKSKPERRRGLSWKSQNGRLYSIKSTKMLIHPTDSESFE
number [1, 4]: 72.6 ± 39 | number [1, 7]: 92.6 ± 49 | number [1, 8]: 65.8 ± 22 | number [2, 4]: 324 ± 230 | number [2, 7]: 317 ± 190 | number [2, 8]: 332 ± 220

MGKGDPKKPRGKMSSYAFFVQTCREEHKKKHPDASVNFSEFSKKCSERWKTMSAKEKGKFEDMAKADKARYEREMKTYIPPKGETKKKFKDPNAPKRPPSAFFLFCSEYRPKIKGEHPGLSIGDVAKKLGEMWNNTAADDKQPYEKKAAKLKEKYEKDIAAYRAKGKPDAAKKGVVKAEKSKKKKEEEEDEEDEEDEEEEEDEEDEDEEEDDDDE
number [1, 7]: 68.4 ± 32 | number [1, 8]: 72.7 ± 30 | number [1, 9]: 75.6 ± 29 | number [2, 7]: 375 ± 220 | number [2, 8]: 389 ± 260 | number [2, 9]: 488 ± 350

MHLSQLLACALLLTLLSLRPSEAKPGAPPKVPRTPPAEELAEPQAAGGGQKKGDKAPGGGGANLKGDRSRLLRDLRVDTKSRAAWARLLQEHPNARKYKGANKKGLSKGCFGLKLDRIGSMSGLGC
number [1, 7]: 103 ± 25 | number [1, 8]: 85.8 ± 35 | number [1, 9]: 94.8 ± 36 | number [2, 7]: 204 ± 190 | number [2, 8]: 297 ± 290 | number [2, 9]: 331 ± 230

MIPGNRMLMVVLLCQVLLGGASHASLIPETGKKKVAEIQGHAGGRRSGQSHELLRDFEATLLQMFGLRRRPQPSKSAVIPDYMRDLYRLQSGEEEEEQIHSTGLEYPERPASRANTVRSFHHEEHLENIPGTSENSAFRFLFNLSSIPENEVISSAELRLFREQVDQGPDWERGFHRINIYEVMKPPAEVVPGHLITRLLDTRLVHHNVTRWETFDVSPAVLRWTREKQPNYGLAIEVTHLHQTRTHQGQHVRISRSLPQGSGNWAQLRPLLVTFGHDGRGHALTRRRRAKRSPKHHSQRARKKNKNCRRHSLYVDFSDVGWNDWIVAPPGYQAFYCHGDCPFPLADHLNSTNHAIVQTLVNSVNSSIPKACCVPTELSAISMLYLDEYDKVVLKNYQEMVVEGCGCR
number [1, 4]: 90.8 ± 56 | number [1, 5]: 112 ± 71 | number [1, 6]: 110 ± 83 | number [2, 4]: 340 ± 200 | number [2, 5]: 541 ± 560 | number [2, 6]: 400 ± 340

MNCVCRLVLVVLSLWPDTAVAPGPPPGPPRVSPDPRAELDSTVLLTRSLLADTRQLAAQLRDKFPADGDHNLDSLPTLAMSAGALGALQLPGVLTRLRADLLSYLRHVQWLRRAGGSSLKTLEPELGTLQARLDRLLRRLQLLMSRLALPQPPPDPPAPPLAPPSSAWGGIRAAHAILGGLHLTLDWAVRGLLLLKTRL
number [1, 4]: 69.3 ± 55 | number [1, 3]: 62.1 ± 53 | number [1, 11]: 151 ± 150 | number [2, 4]: 290 ± 460 | number [2, 3]: 255 ± 320 | number [2, 11]: 489 ± 550

MNRKARRCLGHLFLSLGMVYLRIGGFSSVVALGASIICNKIPGLAPRQRAICQSRPDAIIVIGEGSQMGLDECQFQFRNGRWNCSALGERTVFGKELKVGSREAAFTYAIIAAGVAHAITAACTQGNLSDCGCDKEKQGQYHRDEGWKWGGCSADIRYGIGFAKVFVDAREIKQNARTLMNLHNNEAGRKILEENMKLECKCHGVSGSCTTKTCWTTLPQFRELGYVLKDKYNEAVHVEPVRASRNKRPTFLKIKKPLSYRKPMDTDLVYIEKSPNYCEEDPVTGSVGTQGRACNKTAPQASGCDLMCCGRGYNTHQYARVWQCNCKFHWCCYVKCNTCSERTEMYTCK
number [1, 12]: 104 ± 64 | number [1, 6]: 97.5 ± 66 | number [1, 13]: 98.8 ± 70 | number [2, 12]: 446 ± 300 | number [2, 6]: 351 ± 220 | number [2, 13]: 308 ± 210

Reference: the supplement of paper PMC4299490
